Results from paper PMC6073104.
Results are given in words; binding and its absence hold for the method and conditions named. Binding seen in cells or lysates may run through a third protein. These calls come from enrichment with a bait or labelling near it, and not all partners need be listed.

The chains behind the UniProt entries cited, without tags or fusion partners.
UniProt O95786: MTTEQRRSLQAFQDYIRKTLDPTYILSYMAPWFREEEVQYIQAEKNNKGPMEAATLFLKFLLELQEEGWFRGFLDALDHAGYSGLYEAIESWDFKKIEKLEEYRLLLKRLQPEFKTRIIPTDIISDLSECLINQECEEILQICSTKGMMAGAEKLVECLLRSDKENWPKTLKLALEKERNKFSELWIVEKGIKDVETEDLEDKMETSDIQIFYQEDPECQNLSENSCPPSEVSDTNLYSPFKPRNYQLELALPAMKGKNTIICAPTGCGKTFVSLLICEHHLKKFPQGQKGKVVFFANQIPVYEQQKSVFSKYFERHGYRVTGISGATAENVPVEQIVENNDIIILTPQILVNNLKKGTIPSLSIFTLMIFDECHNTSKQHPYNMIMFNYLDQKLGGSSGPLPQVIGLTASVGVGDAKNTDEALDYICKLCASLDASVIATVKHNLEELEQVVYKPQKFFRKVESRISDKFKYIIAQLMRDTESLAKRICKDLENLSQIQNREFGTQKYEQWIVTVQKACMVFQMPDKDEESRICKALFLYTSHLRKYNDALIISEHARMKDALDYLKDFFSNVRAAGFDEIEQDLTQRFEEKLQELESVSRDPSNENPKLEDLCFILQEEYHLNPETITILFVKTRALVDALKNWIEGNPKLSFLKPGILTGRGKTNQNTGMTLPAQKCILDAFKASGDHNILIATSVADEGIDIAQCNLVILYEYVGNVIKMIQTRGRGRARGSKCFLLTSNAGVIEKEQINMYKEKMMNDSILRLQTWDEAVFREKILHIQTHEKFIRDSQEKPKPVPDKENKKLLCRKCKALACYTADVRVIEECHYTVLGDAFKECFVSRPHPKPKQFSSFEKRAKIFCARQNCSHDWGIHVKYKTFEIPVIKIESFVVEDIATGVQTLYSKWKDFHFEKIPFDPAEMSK
UniProt P62258: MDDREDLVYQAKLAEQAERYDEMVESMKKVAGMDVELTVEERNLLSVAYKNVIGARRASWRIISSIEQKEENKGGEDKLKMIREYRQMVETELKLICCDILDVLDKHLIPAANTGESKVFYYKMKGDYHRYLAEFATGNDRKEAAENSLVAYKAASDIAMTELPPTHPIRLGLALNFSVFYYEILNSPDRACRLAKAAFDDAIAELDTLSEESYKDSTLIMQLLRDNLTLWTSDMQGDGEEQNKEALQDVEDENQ

Target: streptavidin-tagged RIG-I (STREP-RIG-I) (UniProt O95786)
Experiment: affinity purification with mass spectrometry

14-3-3ε, endogenous in 293T cells (from UniProt P62258 1-255)
binding: binds
